± gives the standard deviation. This is one part of the list. The uncertainty is large for many entries.
System: EfPiwi piRISC loaded with L1MC piRNA (26 nt)
Test: pre-steady-state target cleavage rate (min^-1); guide: L1MC piRNA 5'p-UAACUAAAUACUAUGCAAGCUGUAGG; MIWI and MILI are mouse PIWI proteins and EfPiwi is from a freshwater sponge; tags in brackets are library labels; higher = faster piRNA-guided slicing of the target
Details: auxiliary factor: 500 nM Ephydatia muelleri Gtsf1
Procedure: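 Cleave-'n-Seq: a library of target RNAs (target site in constant flanks) at […] was incubated with 1 nM active freshwater sponge Ephydatia fluviatilis Piwi piRISC (synthetic 5'-monophosphorylated piRNA guide) with or without 500 nM EmGtsf1 at 33 °C for 1 min to 16 h. Uncleaved targets were sequenced and the pooled three trials fitted to a burst-and-steady-state model to give the pre-steady-state cleavage rate (min^-1). Sequence is the target site only. Fits with R² ≤ 0 are excluded.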

| Sequence | pre-steady-state target cleavage rate |
| --- | --- |
| UCCUGGAACAGCUUGCUAUGUAUUUAGUAA | 0.000314 ± 0.0087 |
| UCCUGCUACAGCUUGCAUAGUAUUUAGAAA | 0.00439 ± 0.0012 |
| UCCUGGAUGAGCUUGCAUAGUAUUUCGUUA | 0.00352 ± 0.0019 |
| UCCUCCUACAGCUUGCAUAGUUAAUAGAAA | 0.00366 ± 0.0031 |
| UCCUGGAUGUCGAUGCUUAGUUUUUAGUUA | 0.000208 ± 0.019 |
| UCCUGGAUGUCGAACCAUAGUAUUUAGUUG [g2:g15:cont:t1G] | 0.000133 ± 0.028 |
| UCCUGCUUCAGCUUGCAUAGUAUUUAGUUA | 0.103 ± 0.025 |
| UCCUGGUACUGCUAGCAUAGUAUUUAGUUA | 0.00467 ± 0.0022 |
| UCCUGGAUCAGCUUCCAUAGUAUUUACAAA | 0.00192 ± 0.0032 |
| UCCUCCUACAGCUUGCUUAGUAUUUACUUA | 0.00381 ± 0.003 |
| UCCUGGUACAGCUUGCAAAGUAUAUAGUUA | 0.00285 ± 0.0041 |
| UCCUGGAUGUCGUUGCAUAGAAUUUAGUUA | 0.00145 ± 0.0049 |
| UCCUGCUACAGCUUGCAUAGUUAUUUAGUUA | 0.00578 ± 0.0032 |
| UCCUGGAUGUGCUUGGUAAGUAUUUAGUAA | 0.000469 ± 0.0075 |
| UCCUGGAUGAGCUUGCAAAGUAUUUAGAAA | 0.00395 ± 0.0031 |
| UCCUGGAACAGCUUGCAAAGUAUUUACAAA | 0.00187 ± 0.0026 |
| UCCUGGUACAGCUUGCAUACAUUUUAGAAA | 0.000305 ± 0.012 |
| UCCUCCUACAGCUUGCAUAGUAUAAUGUAA | 0.00413 ± 0.0027 |
| UCCUGGAUGUCGAUGCAUAGUAUUAAGUAA | 0.000774 ± 0.0089 |
| UCCUCCAUCAGCUUGCAUAGUAUUUAGAAA | 0.00539 ± 0.0026 |
| UCCUGGAACAGCUUGCUUAGAAUUUAGUUA | 0.00161 ± 0.0026 |
| UCCUCCUACAGCUUGCAUAGUUAUUAGAAA | 0.00348 ± 0.0028 |
| UCCUGGAUCAGCUUGCAUAGUUUUUAGUUA | 0.00592 ± 0.0018 |

Same assay, conditions: auxiliary factor: none (no Gtsf1)

| Sequence | pre-steady-state target cleavage rate |
| --- | --- |
| UCCUGCUACAGCUUGCAUAGUAUUUAGAAA | 0.000508 ± 0.012 |
| UCCUGGAUGAGCUUGCAUAGUAUUUCGUUA | 0.000831 ± 0.01 |
| UCCUCCUACAGCUUGCAUAGUUAAUAGAAA | 0.000431 ± 0.0092 |
| UCCUGGAUGUCGAACCAUAGUAUUUAGUUG [g2:g15:cont:t1G] | 0.000172 ± 0.036 |
| UCCUGGUACUGCUAGCAUAGUAUUUAGUUA | 0.000487 ± 0.019 |
| UCCUCCUACAGCUUGCUUAGUAUUUACUUA | 0.000547 ± 0.0099 |
| UCCUGGUACAGCUUGCAAAGUAUAUAGUUA | 0.000606 ± 0.014 |
| UCCUGGAUGUCGAACGUUAGUAUUUAUUUA | 0.000154 ± 0.059 |
| UCCUGCUACAGCUUGCAUAGUUAUUUAGUUA | 0.000608 ± 0.011 |
| UCCUGGAUGAGCUUGCAAAGUAUUUAGAAA | 0.000464 ± 0.017 |
| UCCUCCUACAGCUUGCAUAGUAUAAUGUAA | 0.00014 ± 0.019 |
| UCCUGGAUGUCGAUGCAUAGUAUUAAGUAA | 0.000364 ± 0.016 |
| UCCUCCAUCAGCUUGCAUAGUAUUUAGAAA | 0.000509 ± 0.012 |
| UCCUCCUACAGCUUGCAUAGUUAUUAGAAA | 0.000858 ± 0.0073 |
| UCCUGGAUCAGCUUGCAUAGUUUUUAGUUA | 0.000944 ± 0.0099 |
| UCCUGCUUCAGCUUGCAUAGUAUUUACAAA | 0.000323 ± 0.02 |

Reference: the supplement of paper PMC10338343
